Taken from: PubChem BioAssay AID1224826 (NIAID, 2016)
Aim: 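Regulators of Tlr4 signalling leading to Tnf-alpha expression in macrophages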 (primary screen). Cells: RAW264.7 G9 macrophages from mouse bearing reporters for p65 (GFP) and the Tnf promoter (mCherry). Reagents: siRNA pool against mouse genes, 100 nM. Duration: 16 h of LPS stimulation, after 2 days of siRNA transfection. Conditions: bacterial lipopolysaccharide (Salmonella minnesota R595), 10 ng/ml. Measured: 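Imaged Tnf reporter mCherry in nuclei, minus background, normalised per plate to the median and expressed as robust z-scores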. Scale: Tnf reporter robust z-score: higher = stronger Tnf promoter reporter signal after LPS; Tnf reporter intensity: higher = stronger Tnf promoter reporter signal. Hit rule: 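a well counts as active at a score of -1.3 or below (Tlr4 knock-down control median) or above 3 (raised signal); controls and wells holding fewer than 50 cells are excluded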. Meaning of the calls: active = Tnf reporter clearly lowered or raised; inactive = no clear change in Tnf reporter.
The whole screen tested about 17,000 reagents; this is a part drawn at random. About 1,110 of all reagents (6.6%) count as active. 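Active means lowered or raised reporter signal; replicate intensities are raw and not normalised per plate.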 A number with no mark means an inactive call.

target	Tnf reporter robust z-score	fewer than 50 cells in well	Tnf reporter intensity, replicate 1	Tnf reporter intensity, replicate 2
Or51ai2		fewer than 50 cells per well; well left out of calls	0	90.3
P2ry1	0.47	enough cells in well	350	152
Smagp	0.4	enough cells in well	221	250
Ube2q2		fewer than 50 cells per well; well left out of calls	182	45.5
Fscn2	-1.06	enough cells in well	141	172
Cbr1	-0.71	enough cells in well	208	138
Nek6	2.85	enough cells in well	352	347
Sorbs1	0.02	enough cells in well	98.6	102
Mmadhc		fewer than 50 cells per well; well left out of calls	174	61.5

Only “fewer than 50 cells in well”, for 2 of the entries above:
Sorbs1	enough cells in well
Mmadhc	fewer than 50 cells per well; well left out of calls

Additional records follow.
target	Tnf reporter robust z-score	fewer than 50 cells in well	Tnf reporter intensity, replicate 1	Tnf reporter intensity, replicate 2
Htra1	0.48	enough cells in well	247	257
Tmem42		fewer than 50 cells per well; well left out of calls	269	88
Romo1		fewer than 50 cells per well; well left out of calls	232	84.7
H2-Q2	-0.72	enough cells in well	162	159
Foxa3	0.19	enough cells in well	308	219
Slc7a6	-0.76	enough cells in well	145	147
Magea2	1.77	enough cells in well	273	259
Kat2b	-0.49	enough cells in well	164	181
Or5m5	0.57	enough cells in well	201	197
Spata16		fewer than 50 cells per well; well left out of calls	153	64.7
Zfp24	-0.87	enough cells in well	153	173
Pik3c2g	-1.32 (active)	enough cells in well	81.5	115
Or4c52	2.25	enough cells in well	333	201
Dtna	-0.47	enough cells in well	218	150
Csgalnact2	2.67	enough cells in well	379	320
